# Screening data

Source: PubChem BioAssay AID912 (NCATS, 2007).

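A cell-based FRET test of anthrax lethal toxin entry, tracked through the 460 nm emission signal; the cell line is not named here.
Each compound was tested as a concentration series from about 0.0005 to 40 µM.
The number is the fitted AC50 of the 460 nm signal alone; lower values mean a more potent effect. A falling signal goes with compounds filed as inhibitors or cytotoxic, a rising one with activators or fluorescent compounds (inferred from the filed classes).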

Values are in µM.
Common to all entries: measured here: 460 nm channel.
This is a side read-out of the assay, for part of the compounds, not drawn at random.
A potency from a partial, single-point or poor curve is only a rough figure.
The first word of each remark tells which way the curve ran; it can be opposite to the aim of the assay.

With N#CC1=C(N)SC(N)=C(C#N)C1Cc1ccccc1 the assay gave AC50 10 µM (falling, single point).
With Cc1nc2c3ccccc3n(CC(=O)c3ccc(F)cc3)c(=O)n2n1 the assay gave AC50 1.995 µM (falling, partial curve).
With Cc1ccc(NC(=O)CSc2nnc(-c3ccncc3)n2N)cc1C the assay gave AC50 10 µM (falling, partial curve).
With CCOC(=O)C(NC(C)=O)(Nc1ccc(S(=O)(=O)Nc2onc(C)c2C)cc1)C(F)(F)F (stereo unspecified) the assay gave AC50 0.3162 µM (falling, partial curve).
With COc1ccccc1S(=O)Cc1ccc(C(=O)NCCc2ccc(Cl)cc2)o1 (stereo unspecified) the assay gave AC50 3.162 µM (falling, full curve).
With COc1ncc2nc(-c3ccccc3)c(=O)n(-c3ccccc3)c2n1 the assay gave AC50 19.95 µM (rising, single point).
With CCOC(=O)N1CCC(Nc2ccc3nnc(-c4ccccc4)n3n2)CC1 the assay gave AC50 3.162 µM (falling, partial curve).
With COCCn1c(SC(C)C(=O)Nc2ccc3c(c2)OCCO3)nc2ccccc2c1=O (stereo unspecified) the assay gave AC50 2.512 µM (rising, full curve, poor fit).
With COc1ccc(CCN(C)CCCOc2ccc(S(=O)(=O)c3[nH]c4ccccc4c3C(C)C)cc2)cc1OC the assay gave AC50 3.981 µM (falling, full curve).
With CCCC(=O)Nc1ncnc2c1ncn2[C@@H]1O[C@@H]2COP(=O)(O)O[C@H]2[C@H]1OC(=O)CCC the assay gave AC50 31.62 µM (falling, single point).
With COc1ccc2[nH]c(-c3ccccc3)c(CCNC(C)=O)c2c1 the assay gave AC50 6.31 µM (rising, partial curve, poor fit).
With CC(C)COc1ccc(C2NC(=O)NC2=O)cc1 (stereo unspecified) the assay gave AC50 25.12 µM (rising, single point).
With CC1CCN(Cc2ccc(NC(=O)C3CCN(c4nnc(-n5cccc5)s4)CC3)cc2)CC1 the assay gave AC50 31.62 µM (falling, single point).
With CCOC(=O)N1CCN(C(=O)c2ccc(Cl)c(S(=O)(=O)Nc3ccccc3)c2)CC1 the assay gave AC50 31.62 µM (rising, single point).
With Cc1cc2ccc(OC(=O)c3ccc(N=C(N)N)cc3)cc2oc1=O the assay gave AC50 0.7943 µM (falling, full curve).
With Cc1cc(C)c(C#N)c(SCC(=O)N2CCCCC2)n1 the assay gave AC50 0.003981 µM (falling, full curve, poor fit).
With COC(=O)[C@@]1(Cc2ccc(F)cc2)[C@H]2c3cc(C(=O)N(C)C)n(Cc4ccc(Cl)c(C(F)(F)F)c4)c3C[C@H]2CN1C(=O)c1ccccc1 the assay gave AC50 0.3981 µM (falling, partial curve, poor fit).
With CCOC(OCC)P(=O)(O)CCCN the assay gave AC50 0.1 µM (falling, full curve, poor fit).
With CC[C@H]1C2=C3C(CC[C@H]4C(OC)OC[C@](C)([C@@H]34)N(C(=O)OC(C)(C)C)C2)C(CO)C1CO (stereo partly specified) the assay gave AC50 12.59 µM (rising, partial curve).
With COc1cc(C2C3=C(CC(C)(C)CC3=O)N(C)C(=O)N2C)cc(OC)c1OC (stereo unspecified) the assay gave AC50 0.07943 µM (falling, full curve, poor fit).
With O=C(c1ccncc1)N1CCC2(CC1)CCN(c1ccncc1)CC2 the assay gave AC50 31.62 µM (falling, single point).
With CN(C)c1ncc2nc(-c3cc(F)cc(F)c3)c(=O)n(-c3ccccc3)c2n1 the assay gave AC50 0.3981 µM (rising, full curve).
With CC(=O)C1=C(C)NC(C)=C(C(C)=O)C1c1ccc(-c2ccccc2Cl)o1 the assay gave AC50 10 µM (rising, partial curve).
With FC(F)(F)c1ccccc1Nc1nccs1 the assay gave AC50 5.012 µM (rising, partial curve).
With COc1ccccc1OCCCn1cc(C#N)c2ccccc21 the assay gave AC50 19.95 µM (falling, single point).
With Cn1c(=S)c2[nH]c(SCCCc3ccccc3)nc2n(C)c1=O the assay gave AC50 0.1259 µM (falling, single point).
With CC(C)COC(=O)C1C2C=CC3(CN(C(C)c4ccc(Br)cc4)C(=O)C13)O2 (stereo unspecified) the assay gave AC50 3.162 µM (rising, single point).
With COc1ccc(N(CC(=O)NC2CCCC2)C(=O)c2ccc(N3CCCCC3)nc2)cc1 the assay gave AC50 5.012 µM (rising, partial curve).
With Cc1cc(C)c2cc(C(O)c3nnnn3Cc3ccccc3)c(=O)[nH]c2c1 (stereo unspecified) the assay gave AC50 2.512 µM (falling, partial curve, poor fit).
With COc1ccc(-c2nc(CS(=O)(=O)CC(=O)Nc3ccc(Cl)cc3)c(C)o2)cc1 the assay gave AC50 0.3981 µM (falling, full curve, poor fit).
With CCN(CC)S(=O)(=O)c1ccc2nc(NC(=O)c3cccs3)sc2c1 the assay gave AC50 31.62 µM (falling, single point).
With CCN(CCCNC(=O)c1cn(CC)c2ccc(S(=O)(=O)N(C)C)cc2c1=O)c1cccc(C)c1 the assay gave AC50 12.59 µM (rising, partial curve).
With COC(=O)c1cc(COc2ccc3oc(C)c(C(=O)OC)c3c2)c(C)o1 the assay gave AC50 31.62 µM (falling, single point).
With COc1cccc(Cn2c(=O)c(-c3ccc(Cl)cc3)nc3cnc(N4CCOCC4)nc32)c1 the assay gave AC50 2.512 µM (rising, full curve).
With O=C(O)COc1ccc(Cl)cc1Cl the assay gave AC50 31.62 µM (falling, single point).
With O=c1c2ccccc2c2ccccc2c(=O)n1-c1cc2c3ccccc3ccc2c2ccccc12 the assay gave AC50 5.012 µM (falling, single point).
With O=C(O)c1nonc1-c1nonc1C(=O)O the assay gave AC50 3.162 µM (falling, partial curve).
With CC(=O)N1CCN(c2ccc(N=Cc3c(O)n(Cc4ccccc4)c(=O)[nH]c3=O)cc2)CC1 the assay gave AC50 19.95 µM (rising, partial curve, poor fit).
With Cn1nc(-c2ccc(Cl)cc2)c2cc(C(=O)N3CCN(c4ccccn4)CC3)sc21 the assay gave AC50 15.85 µM (falling, partial curve).

4 of the entries, repeated:

| structure | AC50 (µM) | remark |
|---|---|---|
| `O=C(O)COc1ccc(Cl)cc1Cl` | 31.62 | falling, single point |
| `O=C(c1ccncc1)N1CCC2(CC1)CCN(c1ccncc1)CC2` | 31.62 | falling, single point |
| `COC(=O)[C@@]1(Cc2ccc(F)cc2)[C@H]2c3cc(C(=O)N(C)C)n(Cc4ccc(Cl)c(C(F)(F)F)c4)c3C[C@H]2CN1C(=O)c1ccccc1` | 0.3981 | falling, partial curve, poor fit |
| `CC[C@H]1C2=C3C(CC[C@H]4C(OC)OC[C@](C)([C@@H]34)N(C(=O)OC(C)(C)C)C2)C(CO)C1CO` (stereo partly specified) | 12.59 | rising, partial curve |